From paper doi:10.1101/2021.01.01.425030
For at least one entry, the source does not settle the construct or the ends of the probe. Where cells or extracts were used, other partners may take part.

Protein sequences, listed by entry. Tags and fused reporters are not part of them.
UniProt Q15717, whole entry: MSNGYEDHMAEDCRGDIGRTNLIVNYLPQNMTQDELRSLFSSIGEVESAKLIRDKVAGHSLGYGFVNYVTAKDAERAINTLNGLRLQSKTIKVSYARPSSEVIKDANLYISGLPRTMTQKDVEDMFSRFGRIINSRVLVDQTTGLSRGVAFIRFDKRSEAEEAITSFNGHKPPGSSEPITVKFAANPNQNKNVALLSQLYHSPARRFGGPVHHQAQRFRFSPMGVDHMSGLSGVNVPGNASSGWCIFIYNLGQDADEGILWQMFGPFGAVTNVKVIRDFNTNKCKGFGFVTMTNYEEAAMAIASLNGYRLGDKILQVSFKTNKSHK

Target: mCherry-HuR (UniProt Q15717)
Assay: RP-CONA on-bead pull-down, confocal imaging
Details: HuR KO HEK293T lysate; protein in a lysate after overexpression

“UGUUGUUUUUAGAUAACUAAAUCGACAACAAA [FITC-pri-miR-7-CTL-biotin]”: binds.
